No constants are given. Whether binding was seen depends on the method and setting. For some assays here: In cells and extracts the contact can be indirect. Some results given as binding are weak or reduced against the parent protein; the word gives no strength.
What was measured:
[1] = target: T1, p120-catenin (p120ctn), endogenous (human) (UniProt O60716); assay: cell surface biotinylation and anti-HA co-immunoprecipitation from ECs
T1 sequence (looked up): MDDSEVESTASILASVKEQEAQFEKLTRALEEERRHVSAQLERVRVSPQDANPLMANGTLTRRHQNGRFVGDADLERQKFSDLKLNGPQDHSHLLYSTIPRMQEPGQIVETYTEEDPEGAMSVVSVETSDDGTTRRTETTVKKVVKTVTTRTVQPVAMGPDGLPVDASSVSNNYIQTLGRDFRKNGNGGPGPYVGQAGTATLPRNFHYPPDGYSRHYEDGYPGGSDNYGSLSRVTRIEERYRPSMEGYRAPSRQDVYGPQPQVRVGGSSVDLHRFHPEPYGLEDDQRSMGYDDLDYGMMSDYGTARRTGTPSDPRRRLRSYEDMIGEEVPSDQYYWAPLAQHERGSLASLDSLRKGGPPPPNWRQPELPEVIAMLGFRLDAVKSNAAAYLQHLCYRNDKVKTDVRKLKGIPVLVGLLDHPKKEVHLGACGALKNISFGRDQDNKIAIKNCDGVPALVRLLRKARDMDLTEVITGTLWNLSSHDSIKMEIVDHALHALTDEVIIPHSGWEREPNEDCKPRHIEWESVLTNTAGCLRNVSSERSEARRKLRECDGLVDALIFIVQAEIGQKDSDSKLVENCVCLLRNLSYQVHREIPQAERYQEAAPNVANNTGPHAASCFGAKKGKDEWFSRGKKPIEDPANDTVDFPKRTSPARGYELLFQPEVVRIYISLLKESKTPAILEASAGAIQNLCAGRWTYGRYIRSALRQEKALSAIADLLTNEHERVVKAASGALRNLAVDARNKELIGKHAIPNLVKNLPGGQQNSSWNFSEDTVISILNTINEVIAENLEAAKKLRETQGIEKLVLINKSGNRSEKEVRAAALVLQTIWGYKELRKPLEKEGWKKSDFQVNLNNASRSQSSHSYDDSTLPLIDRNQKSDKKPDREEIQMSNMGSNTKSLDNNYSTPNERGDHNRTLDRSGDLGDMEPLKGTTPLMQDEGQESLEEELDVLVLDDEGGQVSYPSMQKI

Amino acid sequences for entries named in this document (tags omitted). A change or cut given only in a name is not applied to a line headed by its entry. Chains listed by the source or under a name are the forms on record and can include a tag or linker.
HA-tagged human wild-type LPP3 (pLNCX2-HA-WT-hLPP3) (O14495, form named): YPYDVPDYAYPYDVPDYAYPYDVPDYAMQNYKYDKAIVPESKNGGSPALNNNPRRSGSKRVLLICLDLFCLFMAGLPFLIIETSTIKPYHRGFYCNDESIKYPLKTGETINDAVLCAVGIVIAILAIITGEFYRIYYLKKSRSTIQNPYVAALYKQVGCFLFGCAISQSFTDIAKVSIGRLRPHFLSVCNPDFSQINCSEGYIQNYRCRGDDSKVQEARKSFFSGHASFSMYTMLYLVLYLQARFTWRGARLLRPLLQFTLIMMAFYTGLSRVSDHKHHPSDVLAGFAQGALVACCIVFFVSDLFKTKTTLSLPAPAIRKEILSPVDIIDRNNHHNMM

[2] = target: T1, p120-catenin (p120ctn), endogenous (human); assay: immunoprecipitation and western blot, HEK293 cells stably expressing HA-LPP3

- binding [1]: binds
- binding [2]: binds
Substance: HA-tagged human wild-type LPP3 (pLNCX2-HA-WT-hLPP3) (from UniProt O14495 1-311) (enzyme)
